These are yes or no findings as the source states them, for the method shown. Some entries that bind do so weakly or less than the wild type.
Tests used:
[1] = target: mutant human RAGE (82S) (human) (UniProt Q15109); test: radioligand binding to transfected CHO cells (figure legend)
[2] = target: mutant human RAGE (82S) (human) (UniProt Q15109); test: radioligand binding to transfected CHO cells, mutant against wild-type
[3] = target: mutant human RAGE (82S) (human) (UniProt Q15109); test: radioligand binding to transfected CHO cells (summary in the discussion)

The chains behind the UniProt entries cited, without tags or fusion partners. Where a name states a change or a piece, a line headed by the entry shows the natural chain unless it says otherwise. A line that says so, or that is headed by a name, gives the form on record, which may keep a tag or linker.
mutant human RAGE (82S) (Q15109, form named): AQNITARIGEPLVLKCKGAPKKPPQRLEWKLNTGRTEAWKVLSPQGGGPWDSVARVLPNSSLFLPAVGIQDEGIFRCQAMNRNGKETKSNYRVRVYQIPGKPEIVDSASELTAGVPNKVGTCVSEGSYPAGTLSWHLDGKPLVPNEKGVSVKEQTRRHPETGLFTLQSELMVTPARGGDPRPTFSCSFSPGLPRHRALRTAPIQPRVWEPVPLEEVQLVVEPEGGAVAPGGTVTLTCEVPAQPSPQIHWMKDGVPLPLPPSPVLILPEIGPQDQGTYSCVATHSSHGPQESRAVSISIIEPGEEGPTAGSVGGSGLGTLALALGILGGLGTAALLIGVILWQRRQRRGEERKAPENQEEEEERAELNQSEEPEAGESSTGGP

Measured: binding

B1: EN-RAGE (Extracellular Novel RAGE binding protein) (ligand, bovine, UniProt P79105 2-92, looked up)
chain: TKLEDHLEGIINIFHQYSVRVGHFDTLNKRELKQLITKELPKTLQNTKDQPTIDKIFQDLDADKDGAVSFEEFVVLVSRVLKTAHIDIHKE
modifications: radiolabelled with 125-I (Iodobeads) in the radioligand binding assays
binds: all assays above
